The supplement of paper PMC10849652
The list shows a part of the results.

Sequences of proteins named here, by UniProt entry; tags and fusion partners are left off. A change or cut given only in a name is not applied to a line headed by its entry.
UniProt Q5JU69: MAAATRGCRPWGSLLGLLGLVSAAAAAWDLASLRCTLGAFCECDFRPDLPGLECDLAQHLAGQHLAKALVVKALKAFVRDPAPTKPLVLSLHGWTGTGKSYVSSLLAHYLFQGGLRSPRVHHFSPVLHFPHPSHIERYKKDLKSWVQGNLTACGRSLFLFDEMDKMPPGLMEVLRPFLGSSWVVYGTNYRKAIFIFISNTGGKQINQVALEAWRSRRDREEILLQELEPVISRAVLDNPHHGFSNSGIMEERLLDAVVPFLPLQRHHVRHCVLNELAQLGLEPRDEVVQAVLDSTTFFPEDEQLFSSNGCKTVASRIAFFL
UniProt Q16890: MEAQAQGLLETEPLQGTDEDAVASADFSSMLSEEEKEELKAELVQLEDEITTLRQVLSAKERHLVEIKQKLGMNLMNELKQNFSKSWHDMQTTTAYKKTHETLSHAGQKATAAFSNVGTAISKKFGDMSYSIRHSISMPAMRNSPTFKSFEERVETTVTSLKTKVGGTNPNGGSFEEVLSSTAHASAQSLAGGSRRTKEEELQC
UniProt Q9H0R3: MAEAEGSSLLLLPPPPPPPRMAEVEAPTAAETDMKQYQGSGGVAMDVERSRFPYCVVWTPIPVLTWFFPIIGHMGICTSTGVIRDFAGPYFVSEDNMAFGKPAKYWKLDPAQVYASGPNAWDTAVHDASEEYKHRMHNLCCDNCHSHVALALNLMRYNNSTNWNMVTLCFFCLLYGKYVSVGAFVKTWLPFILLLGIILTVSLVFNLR
UniProt Q13829: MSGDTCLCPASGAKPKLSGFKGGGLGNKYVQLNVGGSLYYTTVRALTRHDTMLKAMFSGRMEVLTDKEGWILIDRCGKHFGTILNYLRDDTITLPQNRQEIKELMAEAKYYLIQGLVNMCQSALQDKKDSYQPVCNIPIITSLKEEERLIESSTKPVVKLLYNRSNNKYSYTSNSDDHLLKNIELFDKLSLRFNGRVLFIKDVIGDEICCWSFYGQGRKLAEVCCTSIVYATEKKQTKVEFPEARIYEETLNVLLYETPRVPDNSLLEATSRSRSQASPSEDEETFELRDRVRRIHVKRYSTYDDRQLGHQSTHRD
UniProt Q5BJD5: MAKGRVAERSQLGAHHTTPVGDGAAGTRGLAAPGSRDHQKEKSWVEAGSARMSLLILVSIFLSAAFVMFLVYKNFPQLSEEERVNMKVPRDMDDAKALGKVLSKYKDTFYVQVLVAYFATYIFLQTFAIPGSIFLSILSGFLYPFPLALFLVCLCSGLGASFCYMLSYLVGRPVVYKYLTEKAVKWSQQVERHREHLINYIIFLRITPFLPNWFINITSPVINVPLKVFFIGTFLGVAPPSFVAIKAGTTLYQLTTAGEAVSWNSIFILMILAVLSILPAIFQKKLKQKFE
UniProt O43399: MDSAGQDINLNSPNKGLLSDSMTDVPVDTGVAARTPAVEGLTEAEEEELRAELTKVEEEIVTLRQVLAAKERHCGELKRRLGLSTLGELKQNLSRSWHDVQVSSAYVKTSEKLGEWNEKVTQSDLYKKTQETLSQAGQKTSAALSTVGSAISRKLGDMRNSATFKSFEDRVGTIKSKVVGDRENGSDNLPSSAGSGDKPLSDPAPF
UniProt H0YL14: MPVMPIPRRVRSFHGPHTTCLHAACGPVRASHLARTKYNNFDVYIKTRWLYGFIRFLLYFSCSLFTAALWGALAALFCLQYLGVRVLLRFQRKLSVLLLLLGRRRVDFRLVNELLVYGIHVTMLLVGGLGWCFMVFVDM
UniProt P42167: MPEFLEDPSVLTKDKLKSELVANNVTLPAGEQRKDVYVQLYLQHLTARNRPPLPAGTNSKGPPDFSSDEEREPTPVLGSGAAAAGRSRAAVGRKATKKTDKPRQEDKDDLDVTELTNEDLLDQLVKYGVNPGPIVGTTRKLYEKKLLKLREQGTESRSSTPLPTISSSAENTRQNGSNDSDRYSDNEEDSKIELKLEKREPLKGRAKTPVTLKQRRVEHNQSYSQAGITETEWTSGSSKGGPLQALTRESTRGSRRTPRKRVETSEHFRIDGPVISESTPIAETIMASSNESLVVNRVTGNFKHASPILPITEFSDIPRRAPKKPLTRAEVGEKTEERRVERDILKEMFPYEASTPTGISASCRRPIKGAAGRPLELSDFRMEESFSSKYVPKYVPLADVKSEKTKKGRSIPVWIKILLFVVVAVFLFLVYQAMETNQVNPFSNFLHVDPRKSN
UniProt Q4KMQ1: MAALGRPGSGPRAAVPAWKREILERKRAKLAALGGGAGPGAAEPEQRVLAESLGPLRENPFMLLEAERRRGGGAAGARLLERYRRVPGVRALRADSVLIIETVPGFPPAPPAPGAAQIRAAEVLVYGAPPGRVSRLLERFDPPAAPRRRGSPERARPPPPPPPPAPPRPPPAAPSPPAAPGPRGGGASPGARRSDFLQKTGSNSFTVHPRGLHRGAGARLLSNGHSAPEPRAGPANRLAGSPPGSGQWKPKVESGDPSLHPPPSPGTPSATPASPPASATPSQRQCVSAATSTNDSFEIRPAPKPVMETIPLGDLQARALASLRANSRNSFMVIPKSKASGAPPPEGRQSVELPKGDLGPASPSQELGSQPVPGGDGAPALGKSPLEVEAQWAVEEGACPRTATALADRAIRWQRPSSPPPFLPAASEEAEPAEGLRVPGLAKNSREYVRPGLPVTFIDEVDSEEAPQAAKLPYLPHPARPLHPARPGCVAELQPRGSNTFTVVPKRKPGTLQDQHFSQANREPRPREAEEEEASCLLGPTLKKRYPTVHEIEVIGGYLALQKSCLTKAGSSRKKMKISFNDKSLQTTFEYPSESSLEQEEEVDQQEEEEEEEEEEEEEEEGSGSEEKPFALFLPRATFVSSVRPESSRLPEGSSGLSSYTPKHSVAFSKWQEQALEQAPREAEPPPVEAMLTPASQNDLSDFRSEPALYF
UniProt Q07912: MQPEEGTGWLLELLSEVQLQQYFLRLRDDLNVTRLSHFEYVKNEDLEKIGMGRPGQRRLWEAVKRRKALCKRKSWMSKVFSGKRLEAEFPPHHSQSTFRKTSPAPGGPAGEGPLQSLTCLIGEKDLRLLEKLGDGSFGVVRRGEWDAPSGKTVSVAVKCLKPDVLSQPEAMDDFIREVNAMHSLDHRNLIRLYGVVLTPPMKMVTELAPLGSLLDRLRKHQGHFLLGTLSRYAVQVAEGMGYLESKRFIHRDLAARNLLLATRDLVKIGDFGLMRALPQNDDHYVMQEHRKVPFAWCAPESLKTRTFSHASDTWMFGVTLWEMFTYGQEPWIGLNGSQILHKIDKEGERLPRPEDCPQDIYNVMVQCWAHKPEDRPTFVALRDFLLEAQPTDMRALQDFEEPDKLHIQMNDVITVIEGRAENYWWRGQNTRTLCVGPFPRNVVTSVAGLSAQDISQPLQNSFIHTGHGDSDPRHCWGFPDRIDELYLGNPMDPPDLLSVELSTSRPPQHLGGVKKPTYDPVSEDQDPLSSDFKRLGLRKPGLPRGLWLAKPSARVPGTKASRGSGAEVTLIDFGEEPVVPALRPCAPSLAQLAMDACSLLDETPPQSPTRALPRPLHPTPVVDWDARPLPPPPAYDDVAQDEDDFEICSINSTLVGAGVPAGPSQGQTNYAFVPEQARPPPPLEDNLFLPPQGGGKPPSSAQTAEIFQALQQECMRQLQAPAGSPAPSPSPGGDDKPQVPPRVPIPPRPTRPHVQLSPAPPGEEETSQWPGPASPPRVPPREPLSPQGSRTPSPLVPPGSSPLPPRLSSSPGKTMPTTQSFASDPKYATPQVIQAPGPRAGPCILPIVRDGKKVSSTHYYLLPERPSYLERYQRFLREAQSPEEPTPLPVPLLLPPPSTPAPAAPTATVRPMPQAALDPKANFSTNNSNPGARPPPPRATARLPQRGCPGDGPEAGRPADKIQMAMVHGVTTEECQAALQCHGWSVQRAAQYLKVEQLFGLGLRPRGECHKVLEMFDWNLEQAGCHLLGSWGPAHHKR
UniProt O95807: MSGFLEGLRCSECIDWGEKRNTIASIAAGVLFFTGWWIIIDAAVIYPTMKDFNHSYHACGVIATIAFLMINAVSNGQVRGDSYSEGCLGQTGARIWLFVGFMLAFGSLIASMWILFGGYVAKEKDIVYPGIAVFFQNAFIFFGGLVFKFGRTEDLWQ
UniProt P55327: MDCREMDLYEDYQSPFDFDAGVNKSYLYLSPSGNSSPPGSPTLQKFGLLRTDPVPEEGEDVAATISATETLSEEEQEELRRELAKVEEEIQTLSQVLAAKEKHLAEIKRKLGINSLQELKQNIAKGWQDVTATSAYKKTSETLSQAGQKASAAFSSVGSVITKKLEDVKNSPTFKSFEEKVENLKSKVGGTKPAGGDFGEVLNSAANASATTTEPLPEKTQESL
UniProt P62328: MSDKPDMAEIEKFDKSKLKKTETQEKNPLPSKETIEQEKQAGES
UniProt A5PLL7: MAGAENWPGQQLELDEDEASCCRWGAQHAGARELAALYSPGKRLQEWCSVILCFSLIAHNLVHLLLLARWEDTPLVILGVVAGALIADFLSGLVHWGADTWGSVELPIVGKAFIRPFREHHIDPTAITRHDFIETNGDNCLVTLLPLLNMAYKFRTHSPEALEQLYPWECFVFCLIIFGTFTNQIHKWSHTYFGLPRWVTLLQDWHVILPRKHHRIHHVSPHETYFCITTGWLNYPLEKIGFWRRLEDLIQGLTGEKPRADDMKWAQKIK
UniProt Q96Q45: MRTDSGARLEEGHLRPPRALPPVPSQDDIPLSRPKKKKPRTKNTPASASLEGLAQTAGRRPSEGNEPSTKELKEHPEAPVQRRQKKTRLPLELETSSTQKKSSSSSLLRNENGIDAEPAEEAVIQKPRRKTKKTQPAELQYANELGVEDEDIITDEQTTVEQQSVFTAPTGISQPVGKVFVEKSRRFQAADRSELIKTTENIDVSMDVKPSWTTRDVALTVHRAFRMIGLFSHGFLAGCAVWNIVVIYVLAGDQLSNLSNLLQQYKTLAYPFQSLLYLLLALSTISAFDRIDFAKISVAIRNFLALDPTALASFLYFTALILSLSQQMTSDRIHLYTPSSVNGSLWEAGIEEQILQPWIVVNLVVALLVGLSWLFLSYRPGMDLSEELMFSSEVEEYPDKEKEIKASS

What was measured:
Test in all cases: log2 fold change, soluble protein after heating vs DMSO (PISA); higher = thermal stabilisation; K562 lysate, 10 uM; active = over 0.2 and 3.5 SD of the protein, either way, in both replicates (recomputed)
erlotinib = compound: C#Cc1cccc(Nc2ncnc3cc(OCCOC)c(OCCOC)cc23)c1 [erlotinib]
In short: (§1)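 K562 pellets were dounce-homogenised in PBS pH 7.4 containing 1 mM MgCl2, and the crude extract, at 1 mg/mL protein, was exposed to 10 μM compound for 30 min. Aliquots were heated for 3 min across 48°C-58°C, pooled, brought to 0.5% NP-40 at 4°C and spun at 21,000xg for 90 min, with the supernatant taken as soluble protein. TMTpro 16plex LC-MS/MS with equalised channel sums quantified that protein. Values are log-two fold changes in thermal stability relative to solvent controls, taken from duplicates.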

[1] = compound: C/C(=N\NC(=O)C1=CC(=CC=C1)S(=O)(=O)N2CCOCC2)/C3=C(C=CC(=C3)Cl)O
In short: as §1

[2] = compound: C1=CC(=CC=C1C2=NC3=C(N2)C=C(C=C3)C(=O)N)OC4=CC=C(C=C4)Cl
In short: as §1

[3] = compound: C1=CC2=C(C=CC(=C2)/C=C\3/C(=O)NC(=NCC4=CC=CS4)S3)N=C1
In short: as §1

[4] = compound: C1=CC2=NC=CN=C2C=C1/C=C/3\C(=O)NC(=O)S3
In short: as §1

[5] = compound: C1=CC=C(C=C1)C2=NC(=C(N2)C3=CC=NC=C3)C4=CC(=C(C=C4)Cl)O
In short: as §1

[6] = compound: C1=CC=C2C(=C1)C3=NNC4=CC=CC(=C43)C2=O
In short: as §1

[7] = compound: C1CCN(C1)C(=O)NC2=CC=CC(=C2)NC3=NC=C(C(=N3)NCCC4=CN=CN4)Br
In short: as §1

[8] = compound: C1CN(CCC1(CC2=CC=C(C=C2)Cl)N)C3=NC=NC4=C3C=CN4
In short: as §1

IRAK-1-4 Inhibitor I = compound: C1COCCN1CCN2C3=CC=CC=C3N=C2NC(=O)C4=CC(=CC=C4)[N+](=O)[O-] [IRAK-1-4 Inhibitor I]
In short: as §1

ibrutinib = compound: C=CC(=O)N1CCC[C@@H](n2nc(-c3ccc(Oc4ccccc4)cc3)c3c(N)ncnc32)C1 [ibrutinib]
In short: as §1

[9] = compound: CC(=O)c1cnc2ccc(-c3cc(Cl)c(O)c(Cl)c3)nc2c1N[C@H]1CC[C@H](CN(C)C)CC1
In short: as §1

ralimetinib = compound: CC(C)(C)Cn1c(N)nc2ccc(-c3[nH]c(C(C)(C)C)nc3-c3ccc(F)cc3)nc21 [ralimetinib]
In short: as §1

[10] = compound: CC(C)(O)CC(=O)NCCn1ccc2ncnc(Nc3ccc(Oc4cccc(C(F)(F)F)c4)c(Cl)c3)c21
In short: as §1

[11] = compound: CC(C)C1=C2N=C(C=C(N2N=C1)NCC3=CC=CC=C3)NCCCCCCN
In short: as §1

[12] = compound: CC1=C(C(CC(=O)N1)C2=CC=C(C=C2)C(F)(F)F)C(=O)NC3=C(C=C4C(=C3)C=NN4)F
In short: as §1

[13] = compound: CC1=C(C2=C(C=C1)C(=O)C3=CC=CC=C3N2CCCN)C
In short: as §1

[14] = compound: CC1=C(C=C(C=C1)NC(=O)C2=CC(=CC=C2)C(C)(C)C#N)NC3=CC4=C(C=C3)N=CN(C4=O)C
In short: as §1

[15] = compound: CC1=C(C=C(C=C1)NC(=O)C2=CC(=CC=C2)N(C)C)NC(=O)C3=CC=C(C=C3)O
In short: as §1

[16] = compound: CC1=CC=C(C=C1)SC2=C3C=C(SC3=CN=C2)C(=O)N
In short: as §1

Measured: log2 fold change

TOR2A (UniProt Q5JU69)
inactive: erlotinib 0.007 | [1] -0.009 | [2] -0.003 | [3] 0.06 | [4] -0.051 | [5] 0.037 | [6] -0.055 | [7] 0.062 | [8] 0.007 | IRAK-1-4 Inhibitor I 0.035 | ibrutinib 0.028 | [9] 0.009 | ralimetinib 0.024 | [10] -0.007 | [11] -0.039 | [12] -0.054 | [13] -0.087 | [14] 0.024 | [15] 0.016 | [16] -0.019

TPD52L1 (UniProt Q16890)
inactive: erlotinib -0.035 | [1] -0.047 | [2] 0.038 | [3] 0 | [4] -0.028 | [5] 0.005 | [6] 0.034 | [7] -0.004 | [8] 0.028 | IRAK-1-4 Inhibitor I 0.007 | ibrutinib 0.095 | [9] -0.032 | ralimetinib -0.052 | [10] -0.037 | [11] 0.006 | [12] 0.031 | [13] 0.024 | [14] -0.045 | [15] -0.062 | [16] -0.038

TMEM222 (UniProt Q9H0R3)
inactive: erlotinib 0.149 | [2] -0.015 | [4] -0.098 | [5] -0.104 | [7] 0.014 | [8] -0.034 | IRAK-1-4 Inhibitor I 0.126 | ibrutinib -0.133 | [9] 0.047 | ralimetinib 0.047 | [10] -0.13 | [11] -0.032 | [12] 0.092 | [13] -0.074 | [14] 0.049 | [15] 0.018 | [16] 0.079

TNFAIP1 (UniProt Q13829)
inactive: [4] -0.086 | [5] 0.044 | IRAK-1-4 Inhibitor I -0.013 | ibrutinib -0.04 | ralimetinib -0.075 | [10] 0.014 | [15] 0.042

TMEM41B (UniProt Q5BJD5)
inactive: erlotinib -0.054 | [2] -0.016 | [4] -0.074 | [5] -0.113 | [7] 0.013 | [8] 0.037 | IRAK-1-4 Inhibitor I -0.02 | ibrutinib 0.018 | [9] -0.042 | ralimetinib 0.122 | [10] -0.043 | [11] -0.07 | [13] -0.077 | [14] -0.087 | [15] -0.143 | [16] 0.181

TPD52L2 isoform 3 (UniProt O43399)
inactive: erlotinib 0.008 | [2] -0.036 | [4] -0.028 | [5] -0.049 | IRAK-1-4 Inhibitor I 0.029 | ibrutinib 0.288 | ralimetinib 0.167 | [10] -0.038 | [11] 0.017 | [12] -0.007 | [15] 0.107

TMEM250 (UniProt H0YL14)
inactive: [14] 0.201

TMPO isoform 2 (UniProt P42167)
inactive: [1] -0.053 | [3] 0.044 | [4] 0.143 | [6] -0.121 | [7] 0.163 | [8] 0.038 | ibrutinib -0.108 | [13] -0.006

TPRN (UniProt Q4KMQ1)
inactive: [13] 0.208 | [14] -0.003

Quoted at random: 2 entries already listed
TMEM250 (UniProt H0YL14)
inactive: [14] 0.201

TPRN (UniProt Q4KMQ1)
inactive: [13] 0.208 | [14] -0.003

(cont.)

TNK2 isoform 3 (UniProt Q07912)
inactive: [4] 0.03 | [5] -0.117 | IRAK-1-4 Inhibitor I 0.454 | ibrutinib -0.236 | ralimetinib -0.1 | [10] -0.181 | [14] 0.044 | [15] 0.053

TMEM268 isoform 3 (UniProt Q5VZI3)
inactive: [5] 0.031 | [7] -0.092 | [8] -0.006 | IRAK-1-4 Inhibitor I -0.24 | ralimetinib -0.222 | [10] 0.084 | [13] -0.11 | [14] 0.062 | [15] 0.08

TMEM50A (UniProt O95807)
inactive: [7] -0.262 | [8] -0.73

TPD52 isoform 3 (UniProt P55327)
inactive: erlotinib -0.179 | [2] 0.007 | [5] -0.086 | [7] 0.076 | [8] 0.037 | IRAK-1-4 Inhibitor I 0.03 | [9] -0.115 | ralimetinib 0.179 | [10] 0.029 | [11] 0.006 | [15] 0.036 | [16] -0.258

TMSB4X (UniProt P62328)
inactive: erlotinib 0.079 | [2] 0.084 | [4] -0.031 | [5] 0.002 | [7] 0.018 | [8] 0.085 | IRAK-1-4 Inhibitor I -0.083 | ibrutinib 0.519 | [9] -0.03 | ralimetinib 0 | [10] -0.072 | [11] 0.033 | [12] 0.122 | [14] -0.025 | [15] 0.075 | [16] -0.064

TMEM189 (UniProt A5PLL7)
inactive: erlotinib -0.11 | [2] 0.033 | [4] -0.029 | [5] 0.057 | [7] -0.019 | [8] 0.042 | IRAK-1-4 Inhibitor I -0.026 | ibrutinib 0.059 | [9] 0.046 | ralimetinib 0.046 | [10] -0.026 | [11] -0.017 | [12] 0.026 | [13] -0.022 | [14] 0.108 | [15] -0.015 | [16] -0.123

TMEM237 isoform 3 (UniProt Q96Q45)
inactive: [1] -0.008 | [3] -0.051 | [5] 0.17 | [6] -0.084 | IRAK-1-4 Inhibitor I 0.035 | [9] 0.044 | ralimetinib 0.144 | [10] -0.04 | [12] -0.035 | [13] 0.068 | [14] -0.068 | [15] -0.06 | [16] -0.053
